Assay: Transmission electron microscopy (TEM) of aggregates
Conditions: end of the incubation time

Chains of the proteins cited; added tags and fusions are not shown. Lines headed by an entry give the natural chain unless they say otherwise; changes in a name come on top.
UniProt P05067: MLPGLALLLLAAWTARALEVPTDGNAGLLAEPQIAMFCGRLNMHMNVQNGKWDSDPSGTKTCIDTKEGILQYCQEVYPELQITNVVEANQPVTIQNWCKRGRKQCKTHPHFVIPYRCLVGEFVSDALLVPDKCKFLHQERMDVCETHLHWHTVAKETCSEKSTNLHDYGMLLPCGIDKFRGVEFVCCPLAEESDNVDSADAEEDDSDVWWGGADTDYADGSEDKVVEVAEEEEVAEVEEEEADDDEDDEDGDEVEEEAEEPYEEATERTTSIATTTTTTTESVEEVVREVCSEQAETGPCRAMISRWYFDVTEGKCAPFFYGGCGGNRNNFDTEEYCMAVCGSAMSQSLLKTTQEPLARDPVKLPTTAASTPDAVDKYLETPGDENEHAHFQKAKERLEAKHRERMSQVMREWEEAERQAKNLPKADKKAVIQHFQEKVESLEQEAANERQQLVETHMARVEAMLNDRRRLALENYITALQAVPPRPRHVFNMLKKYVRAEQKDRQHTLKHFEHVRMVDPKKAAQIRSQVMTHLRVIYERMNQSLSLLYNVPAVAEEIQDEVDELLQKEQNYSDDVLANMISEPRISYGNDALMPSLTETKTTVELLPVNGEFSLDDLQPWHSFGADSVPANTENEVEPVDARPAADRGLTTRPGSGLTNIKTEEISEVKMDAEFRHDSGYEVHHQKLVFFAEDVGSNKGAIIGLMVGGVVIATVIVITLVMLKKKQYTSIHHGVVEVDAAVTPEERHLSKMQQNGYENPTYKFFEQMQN

Substance | aggregate morphology by TEM
fAβ1–42 | tiny and short fibrillar aggregates, as well as a minor population of amorphous aggregates
fAβ25–35 (GSNKGAIIGLM; Amyloid-beta protein 42 fibrillar; UniProt P05067 696-706, looked up, fragment) | highly heterogeneous branched aggregates

Reference: article PMC12412103, “An Amyloidogenic Fragment of the Spike Protein from SARS-CoV‑2 Virus Stimulates the Aggregation and Toxicity of Parkinson’s Disease Protein Alpha-Synuclein” (ACS Chemical Neuroscience, 2025)
